Experimental data taken from PMC10223608 (Marine Drugs, 2023).

Assay: general procedure: solution-phase peptide synthesis; EDC·HCl/HOAt/DIPEA; DEPBT/DIPEA
Conditions: coupling step

Substance: Boc-L-Ile-D-Ala-NMe-D-Phe-L-Pro-OMe
- step yield (over 2 steps from 20): 76% for 2 steps

Substance: (28R,29S)-Statine derivative-L-Ile-Gly-NMe-D-Phe-L-Pro-OMe
- step yield (over 2 steps from 14): 81% for 2 steps

Substance: (28R,29R)-Statine derivative-L-Ile-L-Ala-NMe-D-Phe-L-Pro-OMe
- step yield (over 2 steps from 16): 77% for 2 steps

Substance: (28S,29R)-Statine derivative-L-Ile-L-Ala-NMe-D-Phe-L-Pro-OMe
- step yield (over 2 steps from 16): 75% for 2 steps

Substance: (28R,29S)-Statine derivative-L-Ile-D-Ala-NMe-D-Phe-L-Pro-OMe
- step yield (over 2 steps from 15): 76% for 2 steps

Substance: (28R,29S)-Statine derivative-L-Ile-L-Ala-NMe-D-Phe-L-Pro-OMe
- step yield (over 2 steps from 16): 75% for 2 steps
